Test results as given in patent publication US6514998B1 (priority 1994, dated 2003).
Some results were stated once for a whole list of compounds, not compound by compound.

System: Pyricularia oryzae
Format: in vivo
Conditions: corresponding test, 250 ppm; rice seedlings; untreated plants 70% attack

Structure (SMILES) | attack (visual assessment) [%]
COC(=O)N(OC)c1ccccc1COc1ncn(-c2ccc(C(F)(F)F)cc2)n1 [Compound 31] | ≤ 5
COC(=O)N(OC)c1ccccc1COc1ncn(-c2ccc(C(F)(F)F)cn2)n1 [Compound 43] | ≤ 5
COC(=O)N(OC)c1cc(F)ccc1COc1ncn(-c2ccc(Cl)cc2Cl)n1 [Compound 38] | ≤ 5
COC(=O)N(OC)c1ccccc1COc1nc(Cl)n(-c2ccccc2)n1 [Compound 15, Methyl N-(2-(N′-phenyl-5′chlorotriazolyl-3′-oxymethyl)phenyl)-N-methoxycarbamate] | ≤ 5
COC(=O)N(OC)c1ccccc1COc1ncn(-c2ccc(C(C)(C)C)cc2)n1 [Compound 32] | ≤ 5
COC(=O)N(OC)c1ccccc1COc1ncn(-c2cccc(Cl)c2)n1 [Compound 7] | ≤ 5
CCc1nc(OCc2ccccc2N(OC)C(=O)OC)nn1-c1ccccc1 [Compound 17] | ≤ 5
COC(=O)N(OC)c1ccccc1COc1ncn(-c2ccc(OC)cc2)n1 [Compound 30] | ≤ 5
COC(=O)N(OC)c1ccccc1COc1ncn(-c2ccccc2Cl)n1 [Compound 6] | ≤ 5
COC(=O)N(O)c1ccccc1COc1ncn(-c2ccccc2)n1 [Compound 44] | ≤ 5
COC(=O)N(OC)c1ccccc1COc1ncn(-c2cc(Cl)ccc2Cl)n1 [Compound 21] | ≤ 5
COC(=O)N(OC)c1ccccc1COc1ncn(-c2ccc([N+](=O)[O-])cc2)n1 [Compound 36] | ≤ 5
COC(=O)N(OC)c1ccccc1COc1ncn(-c2ccc(OC(F)(F)F)cc2)n1 [Compound 34] | ≤ 5
COC(=O)N(OC)c1ccccc1COc1ncn(-c2cccc(C(F)(F)F)c2)n1 [Compound 28] | ≤ 5
COC(=O)N(OC)c1ccccc1COc1ncn(-c2ccc(Cl)cc2Cl)n1 [Compound 19] | ≤ 5
COC(=O)N(OC)c1cccc(F)c1COc1ncn(-c2ccc(Cl)cc2Cl)n1 [Compound 37] | ≤ 5
COC(=O)N(OC)c1ccccc1COc1ncn(-c2ccccc2C(F)(F)F)n1 [Compound 27] | ≤ 5
COC(=O)N(OC)c1ccccc1COc1ncn(-c2ccc(Br)cc2)n1 [Compound 29] | ≤ 5
COC(=O)N(OC)c1ccccc1COc1ncn(-c2ccccc2Br)n1 [Compound 26] | ≤ 5
COC(=O)N(OC)c1ccccc1COc1ncn(-c2ccc(F)cc2)n1 [Compound 33] | ≤ 5
COC(=O)N(OC)c1ccccc1COc1ncn(-c2ccccc2F)n1 [Compound 25] | ≤ 5
COC(=O)N(OC)c1ccccc1COc1nc(C)n(-c2ccc(Cl)cc2)n1 [Compound 13] | ≤ 5
COC(=O)N(OC)c1ccccc1COc1ncn(-c2ccc(Cl)cn2)n1 [Compound 45] | ≤ 5
COC(=O)N(OC)c1ccccc1COc1nc(C)n(-c2ccc(C(F)(F)F)cn2)n1 [Compound 42] | ≤ 5
COC(=O)N(OC)c1ccccc1COc1ncn(-c2ccc(Cl)cc2)n1 [Compound 8] | ≤ 5
COC(=O)N(OC)c1ccccc1COc1nc(C(F)(F)F)n(-c2ccccc2)n1 [Compound 24] | ≤ 5
COC(=O)N(OC)c1ccccc1COc1ncn(-c2cccc(Cl)c2Cl)n1 [Compound 18] | ≤ 5
